Laboratory results reported in US20110047631A1, “HEAT SHOCK PROTEIN DEFICIENCIES AS MODEL SYSTEMS FOR BRAIN PATHOLOGY AND CANCER” (Medical College of Georgia Research Institute Inc., priority 2009, published 2011).
Results are given in words; binding and its absence hold for the method and conditions named. For some of these results: Binding seen in cells or lysates may run through a third protein. Some binding calls cover weakened binding; strength is not graded here.

Chains of the proteins cited; added tags and fusions are not shown. Lines headed by an entry give the natural chain unless they say otherwise; changes in a name come on top. A line that says so, or that is headed by a name, gives the form on record, which may keep a tag or linker.
tau (total tau), endogenous mouse protein in brain extracts (P10637, form named): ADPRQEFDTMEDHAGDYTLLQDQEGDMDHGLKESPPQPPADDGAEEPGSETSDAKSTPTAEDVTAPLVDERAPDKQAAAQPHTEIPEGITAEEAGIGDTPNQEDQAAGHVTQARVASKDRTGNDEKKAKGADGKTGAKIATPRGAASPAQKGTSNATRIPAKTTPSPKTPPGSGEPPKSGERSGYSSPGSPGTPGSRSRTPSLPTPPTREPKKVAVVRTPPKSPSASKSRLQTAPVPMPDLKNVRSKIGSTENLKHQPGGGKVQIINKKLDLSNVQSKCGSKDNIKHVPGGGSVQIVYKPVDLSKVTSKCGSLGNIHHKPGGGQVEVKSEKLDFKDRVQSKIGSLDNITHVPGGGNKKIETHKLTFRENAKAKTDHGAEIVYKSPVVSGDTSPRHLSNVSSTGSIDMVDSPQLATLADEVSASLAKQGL
UniProt Q9QUR7: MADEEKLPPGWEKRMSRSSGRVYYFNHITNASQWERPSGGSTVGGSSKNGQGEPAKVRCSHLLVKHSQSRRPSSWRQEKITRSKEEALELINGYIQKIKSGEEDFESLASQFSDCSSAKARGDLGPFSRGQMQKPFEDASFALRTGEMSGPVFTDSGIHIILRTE

How the values were obtained:
[1] = molecular target: tau (total tau), endogenous mouse protein in brain extracts (mouse) (UniProt P10637); experiment: co-immunoprecipitation from mouse brain extracts
[2] = molecular target: tau (total tau), endogenous mouse protein in brain extracts (mouse) (UniProt P10637); experiment: immunoprecipitation of 1 mg mouse brain lysate with antibody to total tau, immunoblot
[3] = molecular target: tau (total tau), endogenous mouse protein in brain extracts (mouse) (UniProt P10637); experiment: immunoprecipitation of mouse brain extracts with antibody to total tau, immunoblot for Pin1
[4] = molecular target: tau (total tau), endogenous mouse protein in brain extracts (mouse) (UniProt P10637); experiment: co-immunoprecipitation with antibody to total tau (DA9), immunoblot for Pin1

Measured: binding

peptidyl-prolyl isomerase Pin1, endogenous mouse protein in brain extracts (from UniProt Q9QUR7 1-165) (enzyme)
binds: all assays above
